# Assay results: the supplement of paper PMC8728848
# This is one part of the list.
# B1: Mnn9-2N3 (Aspergillus fumigatus) (protein)
# chain: MAVARRMRRTNPITLLLAAILAIGFFIFVLSPSTTSASPVKAGSASSSSTSQQRREDNAAENPLSPPTKPFFKSQPVRHDGQQAPPPVVQYNLNQLSSTSTSAANGERILILTPMARFVPEYWDNVVKLTYPHELISIGFIIPKNKEGNAALAALEAAIAKTQSGPIDKRFASISILRQDFEPPLQSQDEKERHKISNQKARRESMSRARNSLLFTTLGPATAWVLWLDADIVETPPTLIQDLTAHDHPVLVPNCYQRYYNSEKKKMDVRPYDYNSWIDSSTAQSMAAEMGPDEILLEGYAEMPTYRTLMAHLADTANPNPKKVIELDGVGGTALMVKAEVHRDGAMFPAFPFYHLVETEGFAKMAKRLGYSVYGLPDYFVSRNFFFFFFFFFFG
# Tests used:
# Assay in all cases: glycan array binding signal (z-score within array); higher = stronger binding
# Conditions in all cases: glycan notation: IUPAC condensed, linker removed
# [1] = target: Neu5Ac(a2-3)Gal(b1-3)]Neu5Ac(a2-3)Gal(b1-4)]GlcNAc
# Procedure, shortened: (§1)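 Glycan array binding is given as a within-array Z-score, which can be read as non-binding when negative. The arrays, 3228 of them, came from the Consortium for Functional Glycomics database and were retained only where the protein sequence was available. Z-scores were averaged across arrays of the same protein sequence at different concentrations or buffers and across linkers.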
# Neu5Ac(a2-3)Gal(b1-4)Glc = target: Neu5Ac(a2-3)Gal(b1-4)Glc
# Procedure, shortened: as §1
# [2] = target: Neu5Ac(a2-3)Gal(b1-4)GlcNAc
# Procedure, shortened: as §1
# [3] = target: Neu5Ac(a2-3)Gal(b1-4)GlcNAc(b1-2)Man
# Procedure, shortened: as §1
# [4] = target: Neu5Ac(a2-3)Gal(b1-4)GlcNAc(b1-2)Man(a1-3)[GlcNAc(b1-4)][Neu5Ac(a2-3)Gal(b1-4)GlcNAc(b1-2)Man(a1-6)]Man(b1-4)GlcNAc(b1-4)GlcNAc
# Procedure, shortened: as §1
# [5] = target: Neu5Ac(a2-3)Gal(b1-4)GlcNAc(b1-2)Man(a1-3)[Neu5Ac(a2-3)Gal(b1-4)GlcNAc(b1-2)Man(a1-6)]Man(b1-4)GlcNAc(b1-4)GlcNAc
# Procedure, shortened: as §1
# [6] = target: Neu5Ac(a2-3)Gal(b1-4)GlcNAc(b1-2)Man(a1-3)[Neu5Ac(a2-3)Gal(b1-4)GlcNAc(b1-2)Man(a1-6)]Man(b1-4)GlcNAc(b1-4)[Fuc(a1-6)]GlcNAc
# Procedure, shortened: as §1
# [7] = target: Neu5Ac(a2-3)Gal(b1-4)GlcNAc(b1-2)Man(a1-3)[Neu5Ac(a2-6)Gal(b1-4)GlcNAc(b1-2)Man(a1-6)]Man(b1-4)GlcNAc(b1-4)GlcNAc
# Procedure, shortened: as §1
# [8] = target: Neu5Ac(a2-3)Gal(b1-4)GlcNAc(b1-2)[Neu5Ac(a2-3)Gal(b1-4)GlcNAc(b1-4)]Man(a1-3)[GlcNAc(b1-4)][Neu5Ac(a2-3)Gal(b1-4)GlcNAc(b1-2)[Neu5Ac(a2-3)Gal(b1-4)GlcNAc(b1-6)]Man(a1-6)]Man(b1-4)GlcNAc(b1-4)GlcNAc
# Procedure, shortened: as §1
# [9] = target: Neu5Ac(a2-3)Gal(b1-4)GlcNAc(b1-2)[Neu5Ac(a2-3)Gal(b1-4)GlcNAc(b1-4)]Man(a1-3)[GlcNAc(b1-4)][Neu5Ac(a2-3)Gal(b1-4)GlcNAc(b1-4)Man(a1-6)]Man(b1-4)GlcNAc(b1-4)GlcNAc
# Procedure, shortened: as §1
# [10] = target: Neu5Ac(a2-3)Gal(b1-4)GlcNAc(b1-2)[Neu5Ac(a2-3)Gal(b1-4)GlcNAc(b1-6)]Man(a1-6)[Neu5Ac(a2-3)Gal(b1-4)GlcNAc(b1-2)Man(a1-3)][GlcNAc(b1-4)]Man(b1-4)GlcNAc(b1-4)GlcNAc
# Procedure, shortened: as §1
# [11] = target: Neu5Ac(a2-3)Gal(b1-4)GlcNAc(b1-3)Gal
# Procedure, shortened: as §1
# [12] = target: Neu5Ac(a2-3)Gal(b1-4)GlcNAc(b1-3)Gal(b1-3)GlcNAc
# Procedure, shortened: as §1
# [13] = target: Neu5Ac(a2-3)Gal(b1-4)GlcNAc(b1-3)Gal(b1-4)GlcNAc
# Procedure, shortened: as §1
# [14] = target: Neu5Ac(a2-3)Gal(b1-4)GlcNAc(b1-3)Gal(b1-4)GlcNAc(b1-2)Man(a1-3)[Neu5Ac(a2-3)Gal(b1-4)GlcNAc(b1-3)Gal(b1-4)GlcNAc(b1-2)Man(a1-6)]Man(b1-4)GlcNAc(b1-4)GlcNAc
# Procedure, shortened: as §1
# [15] = target: Neu5Ac(a2-3)Gal(b1-4)GlcNAc(b1-3)Gal(b1-4)GlcNAc(b1-3)Gal(b1-4)GlcNAc
# Procedure, shortened: as §1
# [16] = target: Neu5Ac(a2-3)Gal(b1-4)GlcNAc(b1-3)Gal(b1-4)GlcNAc(b1-3)Gal(b1-4)GlcNAc(b1-2)Man(a1-3)[Neu5Ac(a2-3)Gal(b1-4)GlcNAc(b1-3)Gal(b1-4)GlcNAc(b1-3)Gal(b1-4)GlcNAc(b1-2)Man(a1-6)]GalNAc
# Procedure, shortened: as §1
# [17] = target: Neu5Ac(a2-3)Gal(b1-4)GlcNAc(b1-3)Gal(b1-4)GlcNAc(b1-3)GalNAc
# Procedure, shortened: as §1
# [18] = target: Neu5Ac(a2-3)Gal(b1-4)GlcNAc(b1-3)Gal(b1-4)GlcNAc(b1-3)[Neu5Ac(a2-3)Gal(b1-4)GlcNAc(b1-3)Gal(b1-4)GlcNAc(b1-6)]GalNAc
# Procedure, shortened: as §1
# [19] = target: Neu5Ac(a2-3)Gal(b1-4)GlcNAc(b1-3)Gal(b1-4)GlcNAc(b1-6)[Gal(b1-3)]GalNAc
# Procedure, shortened: as §1
# [20] = target: Neu5Ac(a2-3)Gal(b1-4)GlcNAc(b1-3)Gal(b1-4)[Fuc(a1-3)]GlcNAc
# Procedure, shortened: as §1
# [21] = target: Neu5Ac(a2-3)Gal(b1-4)GlcNAc(b1-3)GalNAc
# Procedure, shortened: as §1
# [22] = target: Neu5Ac(a2-3)Gal(b1-4)GlcNAc(b1-3)[Neu5Ac(a2-3)Gal(b1-4)GlcNAc(b1-6)]GalNAc
# Procedure, shortened: as §1
# [23] = target: Neu5Ac(a2-3)Gal(b1-4)GlcNAc(b1-6)GalNAc
# Procedure, shortened: as §1
# [24] = target: Neu5Ac(a2-3)Gal(b1-4)GlcNAc(b1-6)[Gal(b1-3)]GalNAc
# Procedure, shortened: as §1
# [25] = target: Neu5Ac(a2-3)Gal(b1-4)GlcNAc(b1-6)[Neu5Ac(a2-3)Gal(b1-3)]GalNAc
# Procedure, shortened: as §1
# [26] = target: Neu5Ac(a2-3)Gal(b1-4)GlcNAc6S
# Procedure, shortened: as §1
# [27] = target: Neu5Ac(a2-3)Gal(b1-4)[Fuc(a1-3)]GlcNAc
# Procedure, shortened: as §1
# [28] = target: Neu5Ac(a2-3)Gal(b1-4)[Fuc(a1-3)]GlcNAc(b1-2)Man
# Procedure, shortened: as §1
# [29] = target: Neu5Ac(a2-3)Gal(b1-4)[Fuc(a1-3)]GlcNAc(b1-3)Gal
# Procedure, shortened: as §1
# [30] = target: Neu5Ac(a2-3)Gal(b1-4)[Fuc(a1-3)]GlcNAc(b1-3)Gal(b1-4)GlcNAc
# Procedure, shortened: as §1
# [31] = target: Neu5Ac(a2-3)Gal(b1-4)[Fuc(a1-3)]GlcNAc(b1-3)Gal(b1-4)[Fuc(a1-3)]GlcNAc(b1-3)Gal(b1-4)[Fuc(a1-3)]GlcNAc
# Procedure, shortened: as §1
# [32] = target: Neu5Ac(a2-3)Gal(b1-4)[Fuc(a1-3)]GlcNAc(b1-3)GalNAc
# Procedure, shortened: as §1
# [33] = target: Neu5Ac(a2-3)Gal(b1-4)[Fuc(a1-3)]GlcNAc(b1-6)[Gal(b1-3)]GalNAc
# Procedure, shortened: as §1
# [34] = target: Neu5Ac(a2-3)Gal(b1-4)[Fuc(a1-3)]GlcNAc(b1-6)[Neu5Ac(a2-3)Gal(b1-3)]GalNAc
# Procedure, shortened: as §1
# [35] = target: Neu5Ac(a2-3)Gal(b1-4)[Fuc(a1-3)]GlcNAc6S
# Procedure, shortened: as §1
# [36] = target: Neu5Ac(a2-3)Gal6S(b1-4)GlcNAc
# Procedure, shortened: as §1
# [37] = target: Neu5Ac(a2-3)Gal6S(b1-4)[Fuc(a1-3)]GlcNAc
# Procedure, shortened: as §1
binder,measurement,setting,value
B1,glycan array binding signal (z-score),[1],-0.07
same,glycan array binding signal (z-score),Neu5Ac(a2-3)Gal(b1-4)Glc,-0.071
same,glycan array binding signal (z-score),[2],0.054
same,glycan array binding signal (z-score),[3],0.051
same,glycan array binding signal (z-score),[4],-1.34
same,glycan array binding signal (z-score),[5],-0.021
same,glycan array binding signal (z-score),[6],1.24
same,glycan array binding signal (z-score),[7],0.159
same,glycan array binding signal (z-score),[8],-0.547
same,glycan array binding signal (z-score),[9],-0.682
same,glycan array binding signal (z-score),[10],-0.217
same,glycan array binding signal (z-score),[11],0.292
same,glycan array binding signal (z-score),[12],0.123
same,glycan array binding signal (z-score),[13],-0.135
same,glycan array binding signal (z-score),[14],-0.069
same,glycan array binding signal (z-score),[15],0.234
same,glycan array binding signal (z-score),[16],-1.05
same,glycan array binding signal (z-score),[17],-2.49
same,glycan array binding signal (z-score),[18],-0.764
same,glycan array binding signal (z-score),[19],-0.542
same,glycan array binding signal (z-score),[20],0.58
same,glycan array binding signal (z-score),[21],-0.007
same,glycan array binding signal (z-score),[22],-2.1
same,glycan array binding signal (z-score),[23],-0.242
same,glycan array binding signal (z-score),[24],-0.181
same,glycan array binding signal (z-score),[25],-0.079
same,glycan array binding signal (z-score),[26],-0.221
same,glycan array binding signal (z-score),[27],0.761
same,glycan array binding signal (z-score),[28],0.079
same,glycan array binding signal (z-score),[29],0.562
same,glycan array binding signal (z-score),[30],-0.809
same,glycan array binding signal (z-score),[31],1.99
same,glycan array binding signal (z-score),[32],0.169
same,glycan array binding signal (z-score),[33],0.502
same,glycan array binding signal (z-score),[34],-0.206
same,glycan array binding signal (z-score),[35],-0.011
same,glycan array binding signal (z-score),[36],0.051
same,glycan array binding signal (z-score),[37],2.08

# Shown tab-delimited: entries from further up.
binder	measurement	setting	value
B1	glycan array binding signal (z-score)	[13]	-0.135
same	glycan array binding signal (z-score)	[14]	-0.069
same	glycan array binding signal (z-score)	[15]	0.234
same	glycan array binding signal (z-score)	[16]	-1.05
same	glycan array binding signal (z-score)	[17]	-2.49
same	glycan array binding signal (z-score)	[18]	-0.764
same	glycan array binding signal (z-score)	[19]	-0.542
